Laboratory results: PMC12864446

Protein sequences, listed by entry. Tags and fused reporters are not part of them. Residues count along the entry.
UniProt Q9LZV4, residues 50-495: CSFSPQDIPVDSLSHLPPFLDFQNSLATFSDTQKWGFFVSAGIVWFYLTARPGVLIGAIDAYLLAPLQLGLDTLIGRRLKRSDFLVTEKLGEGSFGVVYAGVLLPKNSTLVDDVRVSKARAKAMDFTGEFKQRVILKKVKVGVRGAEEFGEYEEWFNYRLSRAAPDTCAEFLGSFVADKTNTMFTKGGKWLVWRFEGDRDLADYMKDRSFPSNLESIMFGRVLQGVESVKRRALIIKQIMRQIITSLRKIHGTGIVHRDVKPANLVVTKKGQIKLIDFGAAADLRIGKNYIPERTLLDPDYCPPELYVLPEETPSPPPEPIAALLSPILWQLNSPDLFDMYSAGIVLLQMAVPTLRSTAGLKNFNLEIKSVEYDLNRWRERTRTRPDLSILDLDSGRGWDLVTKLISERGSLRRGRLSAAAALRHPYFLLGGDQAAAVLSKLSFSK
UniProt Q94AQ8, residues 18-348: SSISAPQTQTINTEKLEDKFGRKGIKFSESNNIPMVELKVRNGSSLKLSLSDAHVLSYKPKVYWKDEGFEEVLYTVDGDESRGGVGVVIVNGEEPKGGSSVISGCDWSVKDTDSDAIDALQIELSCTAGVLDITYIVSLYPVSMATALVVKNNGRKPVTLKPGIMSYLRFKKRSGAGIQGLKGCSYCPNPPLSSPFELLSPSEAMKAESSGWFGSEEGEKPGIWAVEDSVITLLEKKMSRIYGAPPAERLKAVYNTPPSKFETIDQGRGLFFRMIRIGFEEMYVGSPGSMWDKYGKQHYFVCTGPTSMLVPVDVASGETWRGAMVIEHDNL
UniProt P26289: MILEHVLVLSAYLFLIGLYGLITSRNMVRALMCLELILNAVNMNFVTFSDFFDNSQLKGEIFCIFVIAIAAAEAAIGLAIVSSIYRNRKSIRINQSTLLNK
UniProt P56756: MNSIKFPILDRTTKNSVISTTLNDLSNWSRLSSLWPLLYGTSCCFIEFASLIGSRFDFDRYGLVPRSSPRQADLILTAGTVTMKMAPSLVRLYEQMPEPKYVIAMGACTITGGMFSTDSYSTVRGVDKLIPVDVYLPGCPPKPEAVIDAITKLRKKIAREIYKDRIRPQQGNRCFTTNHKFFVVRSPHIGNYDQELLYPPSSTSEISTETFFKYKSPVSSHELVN
UniProt Q9FG89, residues 49-212: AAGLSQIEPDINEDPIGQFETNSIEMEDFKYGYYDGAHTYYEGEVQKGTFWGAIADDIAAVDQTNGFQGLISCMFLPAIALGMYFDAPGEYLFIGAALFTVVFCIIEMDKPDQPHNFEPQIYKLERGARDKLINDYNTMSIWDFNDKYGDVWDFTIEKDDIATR

T1: PsbS-TurboID-eGFP (Arabidopsis thaliana) (UniProt Q9XF91)
T1 sequence: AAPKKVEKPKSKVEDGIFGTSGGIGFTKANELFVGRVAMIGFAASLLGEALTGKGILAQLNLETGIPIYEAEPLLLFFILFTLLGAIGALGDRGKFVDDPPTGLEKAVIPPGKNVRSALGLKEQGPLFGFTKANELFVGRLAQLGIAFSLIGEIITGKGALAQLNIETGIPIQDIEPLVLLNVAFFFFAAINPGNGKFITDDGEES

B1: PGRL1A (protein, UniProt Q8H112 61-324)
chain: ATTEQSGPVGGDNVDSNVLPYCSINKAEKKTIGEMEQEFLQALQSFYYDGKAIMSNEEFDNLKEELMWEGSSVVMLSSDEQRFLEASMAYVSGNPILNDEEYDKLKLKLKIDGSDIVSEGPRCSLRSKKVYSDLAVDYFKMLLLNVPATVVALGLFFFLDDITGFEITYIMELPEPYSFIFTWFAAVPVIVYLALSITKLIIKDFLILKGPCPNCGTENTSFFGTILSISSGGKTNTVKCTNCGTAMVYDSGSRLITLPEGSQA
B2: STN7 (enzyme, UniProt Q9S713 46-562)
chain: AQLIDTVHNLFIGVGVGLPCTVMECGDMIYRSTLPKSNGLTITAPGVALALTALSYLWATPGVAPGFFDMFVLAFVERLFRPTFRKDDFVVGKKLGEGSFGVVYKVSLSKKRSNEEGEYVLKKATEYGAVEIWMNERVRRACGNSCADFVYGFLDKSSKKGPEYWLLWKYEGESTLAGLMQSKEFPYNVETIILGKVQDLPKGLERENKIIQTIMRQLLFALDGLHSTGIIHRDVKPQNIIFSEGSRSFKIIDLGAAADLRVGINYIPKEFLLDPRYAAPEQYIMSTQTPSAPSAPVAAALSPVLWQMNLPDRFDIYSIGLIFLQMAFPSLRSDSNLIQFNRQLKRCDYDLTAWRKLVEPRASADLRRGFELVDLDGGIGWELLTSMVRYKARQRISAKAALAHPYFDRQGLLALSVMQNLRMQYFRATQQDYSEAANWVIQLMAKNGTEKDGGFTETQLQELREKEPRKKANAQRNALASALRLQRKLVKTVTETIDEISDGRKTVWWNRWIPREE
B3: Y3IP1 (protein, UniProt Q9LU01 63-280)
chain: KQEKGDVTEIRVPVPLTLEQQEKEKQNRDDEEDEIDEGDVDPEDLKYVNEIKRVIELLRRNRDMIFSEVKLTIMIEDPRELERRRLLGIEDADTPSRDDLAEALEQVNDGKIPKDRATLRMLHEEMIRWPNLEVEVSKKQRGKSMYAKSTDTGIDPKEAAKRLNVEWDSAAAIEEVDVDDEQGVVTKVAGYGALYFVSALPVIIGISVVLILFYNSLQ
B4: YCF3 (protein, UniProt P61843 1-168)
chain: MPRSRINGNFIDKTFTIVADILLRVIPTTSGEKEAFTYYRDGMSAQSEGNYAEALQNYYEAMRLEIDPYDRSYILYNIGLIHTSNGEHTKALEYYFRALERNPFLPQAFNNMAVICHYRGEQAIQQGDSEMAEAWFAQAAEYWKQAITLTPGNYIEAQNWLTITRRFE
B5: SOQ1 (protein, UniProt Q8VZ10 57-1055)
chain: VAAESPAATIATDDWGKVSAVLFDMDGVLCNSEDLSRRAAVDVFTEMGVEVTVDDFVPFMGTGEAKFLGGVASVKEVKGFDPDAAKERFFEIYLDKYAKPESGIGFPGALELVTECKNKGLKVAVASSADRIKVDANLKAAGLSLTMFDAIVSADAFENLKPAPDIFLAAAKILGVPTSECVVIEDALAGVQAAQAANMRCIAVKTTLSEAILKDAGPSMIRDDIGNISINDILTGGSDSTRNSTAMLEENTVSDKTSANGFQGSRRDILRYGSLGIALSCVYFAATNWKAMQYASPKALWNALVGAKSPSFTQNQGEGRVQQFVDYIADLESKQTATTVPEFPSKLDWLNTAPLQFRRDLKGKVVILDFWTYCCINCMHVLPDLEFLEKKYKDMPFTVVGVHSAKFDNEKDLDAIRNAVLRYDISHPVVNDGDMYMWRELGINSWPTFAVVSPNGKVIAQIAGEGHRKDLDDVVAAALTYYGGKNVLDSTPLPTRLEKDNDPRLATSPLKFPGKLAIDTLNNRLFISDSNHNRIIVTDLEGNFIVQIGSSGEEGFQDGSFEDAAFNRPQGLAYNAKKNLLYVADTENHALREIDFVNERVQTLAGNGTKGSDYQGGRKGTKQLLNSPWDVCFEPVNEKVYIAMAGQHQIWEYSVLDGITRVFSGNGYERNLNGSTPQTTSFAQPSGISLGPDLKEAYIADSESSSIRALDLQTGGSRLLAGGDPYFSENLFKFGDNDGVGAEVLLQHPLGVLCANDGQIYLTDSYNHKIKKLDPVTKRVVTLAGTGKAGFKDGKVKGAQLSEPAGLAITENGRLFVADTNNSLIRYIDLNKGEDSEILTLELKGVQPPTPKAKSLKRLRKRASADTKIVKVDSVTSREGDLNLKISLPDGYHFSKEARSKFVVDVEPENAVAIDPTEGTLSPEGSTMLHFIQSSTSASVGKISCKVYYCKEDEVCLYQSVQFEVPFKVESELSASPTITFTVTPRAPDAGGLQLQGTR
B6: YCF4 (protein, UniProt P56788 1-184)
chain: MSWRSESIWIEFITGSRKTSNFCWAFILFLGSLGFLLVGTSSYLGRNVISLFPSQQIIFFPQGIVMSFYGIAGLFISCYLWCTILWNVGSGYDLFDRKEGIVRIFRWGFPGKSRRIFLRFFMKDIQSIRIEVKEGVSARRVLYMEIRGQGAIPLIRTDENFTTREIEQKAAELAYFLRVPIEVF
B7: DEGP2 (enzyme, UniProt O82261 70-607)
chain: DESSNPPQKMAFKAFGSPKKEKKESLSDFSRDQQTDPAKIHDASFLNAVVKVYCTHTAPDYSLPWQKQRQFTSTGSAFMIGDGKLLTNAHCVEHDTQVKVKRRGDDRKYVAKVLVRGVDCDIALLSVESEDFWKGAEPLRLGHLPRLQDSVTVVGYPLGGDTISVTKGVVSRIEVTSYAHGSSDLLGIQIDAAINPGNSGGPAFNDQGECIGVAFQVYRSEETENIGYVIPTTVVSHFLTDYERNGKYTGYPCLGVLLQKLENPALRECLKVPTNEGVLVRRVEPTSDASKVLKEGDVIVSFDDLHVGCEGTVPFRSSERIAFRYLISQKFAGDIAEIGIIRAGEHKKVQVVLRPRVHLVPYHIDGGQPSYIIVAGLVFTPLSEPLIEEECEDTIGLKLLTKARYSVARFRGEQIVILSQVLANEVNIGYEDMNNQQVLKFNGIPIRNIHHLAHLIDMCKDKYLVFEFEDNYVAVLEREASNSASLCILKDYGIPSERSADLLEPYVDPIDDTQALDQGIGDSPVSNLEIGFDGLVWA
B8: ZEP (Zeaxanthin epoxidase) (enzyme, UniProt Q9FGC7 60-667)
chain: AATALVEKEEKREAVTEKKKKSRVLVAGGGIGGLVFALAAKKKGFDVLVFEKDLSAIRGEGKYRGPIQIQSNALAALEAIDIEVAEQVMEAGCITGDRINGLVDGISGTWYVKFDTFTPAASRGLPVTRVISRMTLQQILARAVGEDVIRNESNVVDFEDSGDKVTVVLENGQRYEGDLLVGADGIWSKVRNNLFGRSEATYSGYTCYTGIADFIPADIESVGYRVFLGHKQYFVSSDVGGGKMQWYAFHEEPAGGADAPNGMKKRLFEIFDGWCDNVLDLLHATEEEAILRRDIYDRSPGFTWGKGRVTLLGDSIHAMQPNMGQGGCMAIEDSFQLALELDEAWKQSVETTTPVDVVSSLKRYEESRRLRVAIIHAMARMAAIMASTYKAYLGVGLGPLSFLTKFRVPHPGRVGGRFFVDIAMPSMLDWVLGGNSEKLQGRPPSCRLTDKADDRLREWFEDDDALERTIKGEWYLIPHGDDCCVSETLCLTKDEDQPCIVGSEPDQDFPGMRIVIPSSQVSKMHARVIYKDGAFFLMDLRSEHGTYVTDNEGRRYRATPNFPARFRSSDIIEFGSDKKAAFRVKVIRKTPKSTRKNESNNDKLLQTA
B9: Light-regulated protein 1 (LIR1) (protein, UniProt Q96500 42-141)
chain: SNNSSSSSSLTSDPNTVDYNSSILSVFPAEACEVISGYACSADIYPEVKLDTKPVSRPVASEPVDREYEEYNSPKTVFREEACDDLGGEFCEPDFQKDAN

Each molecule was assayed against T1, PsbS-TurboID-eGFP (Arabidopsis thaliana) (assay: proximity labelling; TurboID fused to PsbS in stable Arabidopsis seedlings (5-day old); 50 µM biotin, 3 h, 22°C, under high light (600 µmol m-2 s-1) or in the dark; streptavidin magnetic beads, LC-MS/MS, LFQ against the control PTP-TurboID-eGFP (log2 FC >= 1)).

binding | Molecule
binds | STN8 (from UniProt Q9LZV4 50-495) (enzyme)
binds | RIQ1
binds | Lhcb1.5
binds | PnsB2 (from UniProt Q94AQ8 18-348)
binds | NdhE (from UniProt P26289 1-101)
binds | NdhK (from UniProt P56756 1-225)
binds | PnsB5 (from UniProt Q9FG89 49-212)
binds | thioredoxin X (THX)
binds | Lhcb3 (from UniProt Q9S7M0 23-265)
binds | CP24
binds | B1
binds | B2
binds | B3
binds | B4
binds | B5
binds | B6
binds | B7
binds | B8
binds | B9

No constants are given. Whether binding was seen depends on the method and setting. In cells and extracts the contact can be indirect. These calls come from enrichment with a bait or labelling near it, and not all partners need be listed. Where a sequence is shown, tags or fusion partners need not be part of it.
